{
  "source": "patent US12209079B2",
  "about": "(GENERAL INCORPORATED ASSOCIATION PHARMA VALLEY PROJECT …, priority 2017, dated 2025)",
  "key": {"[1]": {"tested_on": "subcutaneous CT-26WT syngeneic graft of large intestine cancer", "test": "Drug efficacy test, combined use of IDO/TDO inhibitor and oxaliplatin, mice with subcutaneous CT-26WT syngeneic graft (Test Example 5)", "format": "in vivo, mouse", "conditions": "40 mg/kg oral twice a day in 0.5% methyl cellulose, combined with oxaliplatin 10 mg/kg i.v.; Balb/c mice; FIG. 4", "method": "Drug Efficacy Test on Combined Use of IDO/TDO Inhibitor and Oxaliplatin Using Mice with a Subcutaneous CT-26WT Syngeneic Graft of Large Intestine Cancer\n5×10^5 cells of syngeneic large intestine cancer cell line CT26WT were subcutaneously transplanted to each of 6-week-old female Balb/c mice. The mice were divided into groups each involving 6 individuals 10 days later within a tumor size range of 41-427 mm^3. The oral administration (solvent for oral administration and 40 mg/kg each of epacadostat and compounds 37, 31, 7, 15, 1, 50, 52, 76, 95, 33, 49, 2, 10, 36, 103, 38 and 29 were administered twice a day at a 5-hour interval from days 1 to 5 and days 8 to 12) and intravenous injection (5% glucose solution and 10 mg/kg oxaliplatin were administered once a day on days 1 and 8) of each agent were started. Then, the major axis and minor axis of subcutaneous tumor were measured three times a week using calipers, and a mean and standard error of the mean of the ratios of the calculated volumes to the volumes at the administration start day in each group were plotted. The calculation expression was Volume (mm^3)=[[…]×Length (mm)]/2. The agent for oral administration was suspended in 0.5% methyl cellulose as a solvent for oral administration. The results are shown in FIG. 4 (if a plurality of experiments were conducted for the same agent, the results were combined). […]"}, "[2]": {"tested_on": "subcutaneous CT-26WT syngeneic graft of large intestine cancer", "test": "Drug efficacy test, combined use of compound 29 or 38 and anti-PD1 antibody, mice with subcutaneous CT-26WT syngeneic graft (Test Example 6)", "format": "in vivo, mouse", "conditions": "40 mg/kg oral twice a day, combined with anti-PD1 antibody 200 μg/individual i.p.; Balb/c mice; FIG. 5", "method": "Drug Efficacy Test on Combined Use of Compound 29 or 38 and Anti-PD1 Antibody Using Mice with Subcutaneous CT-26WT Syngeneic Graft of Large Intestine Cancer\n5×10^5 cells of syngeneic large intestine cancer cell line CT26WT were subcutaneously transplanted to each of 6-week-old female Balb/c mice. The mice were divided into 6 groups each involving 6 individuals 10 days later when the average tumor size was 250 mm^3. The oral administration (solvent for oral administration and 40 mg/kg each of compounds 29 and 38 were administered twice a day at a 5-hour interval from days 1 to 5 and days 8 to 12) and intraperitoneal administration (PBS and 200 μg/individual of an anti-PD1 antibody were administered once a day on days 1 and 8) of each agent were started. Then, the major axis and minor axis of subcutaneous tumor were measured three times a week using calipers, and a mean and standard error of the mean of the calculated volumes in each group were plotted. The calculation expression was Volume (mm^3)=[[…]×Length (mm)]/2. Compound 29 or 38 was suspended in 0.5% methyl cellulose as a solvent for oral administration. […]"}},
  "note": "At least one compound was matched to its structure with a doubt left.",
  "data": [
    {"molecule": "Br.Br.N=C(N)SCc1cc(Cl)c(Cl)cc1CSC(=N)N", "note": "[Compound 36, (4,5-dichloro-1,2-phenylene)bis(methylene) dicarbamimidothioate dihydrobromide]", "values": [
      {"measurement": "tumor growth (ratio of tumor volume to start day)", "setting": "[1]", "result": "can suppress tumor growth"}
    ]},
    {"molecule": "Clc1ccc(CCN2CN=C(SCc3cc(Cl)c(Cl)cc3CSC3=NCN(CCc4ccc(Cl)c(Cl)c4)CN3)NC2)cc1Cl", "note": "[Compound 38, 6,6′-(((4,5-Dichloro-1,2-phenylene)bis(methylene))bis(sulfanediyl))bis(3-(3,4-dichlorophenethyl)-1,2,3,4-tetrahydro-1,3,5-triazine)]", "values": [
      {"measurement": "tumor growth (ratio of tumor volume to start day)", "setting": "[1]", "result": "can suppress tumor growth"},
      {"measurement": "tumor growth (tumor volume)", "setting": "[2]", "result": "can suppress tumor growth"}
    ]}
  ]
}
